Experimental data as given in the supplement of paper PMC7752906.
Structures can show the parent of a compound that is named as a salt. This is one part of the list. Repeats in this data set agree poorly, so a single value says little.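 Wells held roughly 40 S. mansoni schistosomula, imaged in bright field over time against wells given 0.1% DMSO. The paper defines hits as drugs with a Mahalanobis distance of at least 2.47, three standard deviations above the DMSO control mean. Degeneracy is the proportion of worms classified as opaque.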

System: Schistosoma mansoni schistosomula
Experiment: degeneracy (percent of somules classified as degenerate/opaque); higher = more parasite degeneration/death; extreme values may be limits of the assay
Conditions: 10 µM; 72 h

Question: How did the degeneracy turn out when `C#C[C@]1(O)CC[C@H]2[C@@H]3CCc4cc(OC)ccc4[C@H]3CC[C@@]21C` [Mestranol] was run?
Answer: 100%

Question: With `O=C(O)P(=O)(O)O` [Foscarnet Sodium] as the compound, how does the degeneracy read?
Answer: 0%

Question: How did the degeneracy turn out when `CCCCCCCCCCCCCCCC[N+](C)(C)CCN(Cc1ccc(OC)cc1)c1ncccn1` [Thonzonium Bromide] was run?
Answer: 69.6%

Question: How did the degeneracy turn out when `CNC(=C[N+](=O)[O-])NCCSCc1ccc(CN(C)C)o1` [Ranitidine] was run?
Answer: 7.14%

Question: Which degeneracy does the source give for `COC(=O)[C@H]1[C@H]2C[C@@H]3c4[nH]c5cc(OC)ccc5c4CCN3C[C@H]2C[C@@H](OC(=O)c2cc(OC)c(OC)c(OC)c2)[C@@H]1OC` [reserpine] here?
Answer: 60%

Question: How did the degeneracy turn out when `CN1C(=O)CC(C)(c2ccccc2)C1=O` (stereo unspecified) [Methsuximide] was run?
Answer: 2.44%

Question: For `CC(C)(CO)[C@@H](O)C(=O)NCCCO` [Dexpanthenol], which degeneracy is on record?
Answer: 2.13%

Question: For `NS(=O)(=O)c1cc2c(cc1Cl)N=C(CSCc1ccccc1)NS2(=O)=O` [Benzthiazide], which degeneracy is on record?
Answer: 6.45%

Question: Which degeneracy does the source give for `CC(=O)OC/C=C(C)/C=C/C=C(C)/C=C/C1=C(C)CCCC1(C)C` [Retinyl Acetate] here?
Answer: 13.8%

Question: For `OC[C@@H](O)[C@@H](O)CO` [Erythritol], which degeneracy is on record?
Answer: 0%

Question: With `O=C(O)Cc1ccccc1Nc1c(Cl)cccc1Cl` [Diclofenac] as the compound, how does the degeneracy read?
Answer: 5.56%

Question: With `N=c1ccn2c(n1)O[C@H]1[C@H](O)[C@@H](CO)O[C@H]12` [Ancitabine Hydrochloride] as the compound, how does the degeneracy read?
Answer: 12.5%

Question: Which degeneracy does the source give for `CS(=O)(=O)c1ccc([C@@H](O)[C@@H](CO)NC(=O)C(Cl)Cl)cc1` [Thiamphenicol] here?
Answer: 2.7%

Question: Which degeneracy does the source give for `C[C@]12C=CC(=O)C=C1CC[C@@H]1[C@@H]2[C@@H](O)C[C@@]2(C)[C@H]1CC[C@]2(O)C(=O)CO` [Prednisolone] here?
Answer: 2.94%

Question: With `Nc1ccc(O)c(C(=O)O)c1` [Mesalamine] as the compound, how does the degeneracy read?
Answer: 9.09%

Question: Which degeneracy does the source give for `CCC(=O)O[C@H](CC(=O)O)C[N+](C)(C)C` [Levocarnitine Propionate Hydrochloride] here?
Answer: 11.1%

Question: Which degeneracy does the source give for `CN(C)CCCN1c2ccccc2CCc2ccc(Cl)cc21` [Clomipramine] here?
Answer: 100%

Question: With `Cc1cc(C(C)(C)CC(C)(C)C)ccc1OCCOCC[N+](C)(C)Cc1ccccc1` [Methylbenzethonium Chloride] as the compound, how does the degeneracy read?
Answer: 100%

Question: Which degeneracy does the source give for `Cc1cc(NC(=O)C2=C(O)c3ccccc3S(=O)(=O)N2C)no1` [Isoxicam] here?
Answer: 2.94%

Question: Which degeneracy does the source give for `COC(=O)C1=C(C)NC(C)=C(C(=O)OC)C1c1ccccc1[N+](=O)[O-]` [Nifedipine] here?
Answer: 4.17%

Question: For `COc1cc2c(cc1O)CC[C@@H]1[C@@H]2CC[C@]2(C)[C@@H](O)CC[C@@H]12` [2-methoxyestradiol], which degeneracy is on record?
Answer: 13.3%

Question: With `CO[C@@]1(NC(=O)C(C(=O)O)c2ccc(O)cc2)C(=O)N2C(C(=O)O)=C(CSc3nnnn3C)CO[C@@H]21` (stereo partly specified) [Moxalactam Disodium] as the compound, how does the degeneracy read?
Answer: 4%

Question: With `O=C1CC[C@@H](C(=O)O)N1` [Pidolic Acid] as the compound, how does the degeneracy read?
Answer: 2.7%

Question: How did the degeneracy turn out when `C#C[C@]1(O)CC[C@H]2[C@@H]3CCC4=CC(=O)CC[C@@H]4[C@H]3CC[C@@]21C` [Norethindrone] was run?
Answer: 11.4%

Question: For `C#C[C@]1(OC(C)=O)CC[C@H]2[C@@H]3CCC4=C[C@@H](OC(C)=O)CC[C@@H]4[C@H]3CC[C@@]21C` [Ethynodiol Diacetate], which degeneracy is on record?
Answer: 4.26%

Question: How did the degeneracy turn out when `CCCN[C@H]1CCc2nc(N)sc2C1` [Pramipexole] was run?
Answer: 9.52%

Question: For `Cc1nc2ccccc2n1Cc1ccc(Cl)cc1` [Chlormidazole], which degeneracy is on record?
Answer: 62.5%

Question: With `Cc1cc(=O)oc2cc(O)ccc12` [Hymecromone] as the compound, how does the degeneracy read?
Answer: 17.4%

Question: `CCCNC(C)C(=O)Nc1ccccc1C` (stereo unspecified) [Prilocaine] was tested. Which degeneracy did it give?
Answer: 11.1%

Question: `COc1ccc(CN(CCN(C)C)c2ccccn2)cc1` [Pyrilamine] was tested. Which degeneracy did it give?
Answer: 3.7%

Question: With `CC(COc1ccccc1)N(CCCl)Cc1ccccc1` (stereo unspecified) [Phenoxybenzamine] as the compound, how does the degeneracy read?
Answer: 100%

Question: How did the degeneracy turn out when `CC(=O)c1ccc(S(=O)(=O)NC(=O)NC2CCCCC2)cc1` [Acetohexamide] was run?
Answer: 0%

Question: `NCCCC[C@H](N[C@@H](CCc1ccccc1)C(=O)O)C(=O)N1CCC[C@H]1C(=O)O` [Lisinopril] was tested. Which degeneracy did it give?
Answer: 4.88%

Question: With `CC(C)(C)NC[C@H](O)COc1nsnc1N1CCOCC1` [Timolol Maleate] as the compound, how does the degeneracy read?
Answer: 0%

Question: How did the degeneracy turn out when `CC(C)(C)NC[C@H](O)COc1nsnc1N1CCOCC1` [Timolol] was run?
Answer: 0%

Question: `CO/N=C(\C(=O)N[C@@H]1C(=O)N2C(C(=O)O)=C(CSc3nc(=O)c(O)nn3C)CS[C@H]12)c1csc(N)n1` [Ceftriaxone Sodium Trihydrate] was tested. Which degeneracy did it give?
Answer: 0%

Question: How did the degeneracy turn out when `CCOC(=O)OC(C)OC(=O)[C@@H]1N2C(=O)[C@@H](NC(=O)[C@H](N)c3ccccc3)[C@H]2SC1(C)C` (stereo partly specified) [Bacampicillin Hydrochloride] was run?
Answer: 9.3%

Question: For `CC(=O)N[C@@H](CC(C)C)C(=O)O` [Acetyl-l-leucine], which degeneracy is on record?
Answer: 5.13%

Question: How did the degeneracy turn out when `Nc1nc(=O)c2nc(CNc3ccc(C(=O)N[C@@H](CCC(=O)O)C(=O)O)cc3)cnc2[nH]1` [Folic Acid] was run?
Answer: 10.3%

Question: For `CC(C)C[C@H](NC(=O)[C@@H](Cc1c[nH]c2ccccc12)NC(=O)[C@H](Cc1ccc(O)cc1)NC(=O)[C@H](CO)NC(=O)[C@H](Cc1c[nH]c2ccccc12)NC(=O)[C@H](Cc1c[nH]cn1)NC(=O)[C@@H]1CCC(=O)N1)C(=O)N[C@@H](CCCNC(=N)N)C(=O)N1CCC[C@H]1C(=O)NCC(N)=O` [Triptorelin], which degeneracy is on record?
Answer: 3.23%

Question: For `C=C1CC[C@H](O)C/C1=C/C=C1\CCC[C@]2(C)[C@@H]([C@H](C)CCCC(C)(C)O)CC[C@@H]12` [Calcifediol], which degeneracy is on record?
Answer: 0%

Question: For `CC[C@H]1OC(=O)[C@H](C)[C@@H](O[C@H]2C[C@@](C)(OC)[C@@H](O)[C@H](C)O2)[C@H](C)[C@@H](O[C@@H]2O[C@H](C)C[C@H](N(C)C)[C@H]2O)[C@](C)(O)C[C@@H](C)/C(=N\OCOCCOC)[C@H](C)[C@@H](O)[C@]1(C)O` [Roxithromycin], which degeneracy is on record?
Answer: 6.52%

Question: For `O=C1CN2Cc3c(ccc(Cl)c3Cl)N=C2N1` [Anagrelide Hydrochloride], which degeneracy is on record?
Answer: 2.33%

Question: How did the degeneracy turn out when `Nc1nc(Cl)nc2c1ncn2[C@@H]1O[C@H](CO)[C@@H](O)[C@@H]1F` [Clofarabine] was run?
Answer: 6.25%

Question: `CC(=O)OCC(COC(C)=O)OC(C)=O` [Triacetin] was tested. Which degeneracy did it give?
Answer: 2.63%

Question: How did the degeneracy turn out when `CO[C@H]1/C=C/O[C@@]2(C)Oc3c(C)c(O)c4c(c3C2=O)C2=NC3(CCN(CC(C)C)CC3)NC2=C(NC(=O)/C(C)=C\C=C\[C@H](C)[C@H](O)[C@@H](C)[C@@H](O)[C@@H](C)[C@H](OC(C)=O)[C@@H]1C)C4=O` [Rifabutin] was run?
Answer: 18.8%
